Assay results: patent US8680046B2, “Inhibitors of viral integrase and methods of use” (Integratech Proteomics, LLC, priority 2009, dated 2014)
Part of at least one peptide drawing is inferred or uncertain, most often the ends. Peptide text beside a SMILES is read from it.

Target: HIV IN (Human immunodeficiency virus type 1 group M subtype B, UniProt P12497)
Assay type: biochemical
Details: for concentration range inhibiting in-vitro concerted integration activity: peptide pre-incubated with IN; for inhibition of integration of viral DNA into target DNA: summary statement; for concerted viral DNA integration: with deproteinization, FIG. 4, as peptide concentration increases; for effect on strand transfer complex (STC): without deproteinization, FIG. 3, concentration dependent

SMILES | concentration range inhibiting in-vitro concerted integration activity [µM] | inhibition of integration of viral DNA into target DNA | concerted viral DNA integration | effect on strand transfer complex (STC)
CC[C@H](C)[C@H](NC(=O)[C@H](CC(C)C)NC(=O)[C@@H](NC(=O)[C@@H](NC(=O)[C@H](CCC(=O)O)NC(=O)[C@H](Cc1ccc(O)cc1)NC(=O)[C@@H](N)CC(C)C)[C@@H](C)O)[C@@H](C)CC)C(=O)N[C@@H](CC(C)C)C(=O)N[C@@H](CC(C)C)C(=O)N[C@@H](Cc1ccccc1)C(=O)N[C@@H](CC(C)C)C(=O)N[C@@H](CC(=O)O)C(=O)N[C@H](C(=O)N[C@@H](CC(=O)O)C(=O)N[C@H](C(=O)NCC(=O)N[C@@H](CCCCN)C(=O)N[C@@H](CCCCN)C(=O)N[C@@H](CCCNC(=N)N)C(=O)O)[C@@H](C)O)C(C)C [B05751] (H-LYETILILLFLDVDTGKKR-OH; N-terminus and C-terminus assumed) | ~5 | inhibit the integration of viral DNA into the target DNA | decreases | the STC was affected
CC[C@H](C)[C@H](NC(=O)[C@H](CC(C)C)NC(=O)[C@@H](NC(=O)[C@@H](NC(=O)[C@H](CCC(=O)O)NC(=O)[C@H](Cc1ccc(O)cc1)NC(=O)[C@@H](N)CC(C)C)[C@@H](C)O)[C@@H](C)CC)C(=O)N[C@@H](CC(C)C)C(=O)N[C@@H](CC(C)C)C(=O)N[C@@H](Cc1ccccc1)C(=O)N[C@@H](CC(C)C)C(=O)N[C@@H](CC(=O)O)C(=O)N[C@H](C(=O)N[C@@H](CC(=O)O)C(=O)N[C@H](C(=O)NCC(=O)N[C@@H](CC(=O)O)C(=O)N[C@@H](CCC(=O)O)C(=O)N[C@@H](CC(=O)O)C(=O)O)[C@@H](C)O)C(C)C [B05759] (H-LYETILILLFLDVDTGDED-OH; N-terminus and C-terminus assumed) | ~5 | inhibit the integration of viral DNA into the target DNA | decreases | the STC was affected
